Values of other authors in patent US20100135983A1, “Anti-inflammatory compositions and methods” (Searete LLC, a limited liability corporation of the State …, priority 2008, published 2010).
At least one compound was matched to its structure with a doubt left.

Assays:
[1] = tested on: Leishmania
[2] = tested on: Giardia
[3] = tested on: malarial parasites

CCN(CC)C(=S)S [Diethyldithiocarbamate]
toxic: toxicity to Leishmania [1] | toxicity to Giardia [2] | toxicity to malarial parasites [3]
